These are yes or no findings as the source states them, for the method shown. Binding seen in cells or lysates may run through a third protein. Some binding calls cover weakened binding; strength is not graded here. For part of these data: Tags and fused reporters may be left off the sequences shown.
Tests used:
[1] = target: IBV M41 spike protein (infectious bronchitis virus (IBV) strain M41) (UniProt P12651); assay: co-IP; M41-infected CEK cells, immunoprecipitation with mAb 1H1 to IBV S or mouse IgG; immunoblots with mAbs to IBV S1 and HSPA8
[2] = target: flag-n-HSPA8 (chicken HSPA8) (chicken) (UniProt O73885); assay: co-IP; 293T cells cotransfected; flag-tagged HSPA8 immunoprecipitated with flag antibody, Sepharose A/G beads; Western blot with anti-flag and anti-GFP
[3] = target: T1, EGFP-C3-M41-RBD (infectious bronchitis virus (IBV) strain M41) (UniProt P12651); assay: co-IP; reciprocal: 293T cells cotransfected; GFP-tagged M41-RBD immunoprecipitated with GFP antibody, Sepharose A/G beads; Western blot with anti-flag and anti-GFP
T1 sequence: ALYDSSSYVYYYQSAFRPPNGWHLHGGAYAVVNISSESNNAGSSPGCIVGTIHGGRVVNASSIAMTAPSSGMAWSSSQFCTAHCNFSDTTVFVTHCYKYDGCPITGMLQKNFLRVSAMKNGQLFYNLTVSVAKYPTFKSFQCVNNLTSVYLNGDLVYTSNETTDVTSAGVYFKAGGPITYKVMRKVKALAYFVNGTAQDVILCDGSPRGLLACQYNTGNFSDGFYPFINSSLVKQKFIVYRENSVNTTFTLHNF

The chains behind the UniProt entries cited, without tags or fusion partners. Residues count along the entry.
UniProt O73885: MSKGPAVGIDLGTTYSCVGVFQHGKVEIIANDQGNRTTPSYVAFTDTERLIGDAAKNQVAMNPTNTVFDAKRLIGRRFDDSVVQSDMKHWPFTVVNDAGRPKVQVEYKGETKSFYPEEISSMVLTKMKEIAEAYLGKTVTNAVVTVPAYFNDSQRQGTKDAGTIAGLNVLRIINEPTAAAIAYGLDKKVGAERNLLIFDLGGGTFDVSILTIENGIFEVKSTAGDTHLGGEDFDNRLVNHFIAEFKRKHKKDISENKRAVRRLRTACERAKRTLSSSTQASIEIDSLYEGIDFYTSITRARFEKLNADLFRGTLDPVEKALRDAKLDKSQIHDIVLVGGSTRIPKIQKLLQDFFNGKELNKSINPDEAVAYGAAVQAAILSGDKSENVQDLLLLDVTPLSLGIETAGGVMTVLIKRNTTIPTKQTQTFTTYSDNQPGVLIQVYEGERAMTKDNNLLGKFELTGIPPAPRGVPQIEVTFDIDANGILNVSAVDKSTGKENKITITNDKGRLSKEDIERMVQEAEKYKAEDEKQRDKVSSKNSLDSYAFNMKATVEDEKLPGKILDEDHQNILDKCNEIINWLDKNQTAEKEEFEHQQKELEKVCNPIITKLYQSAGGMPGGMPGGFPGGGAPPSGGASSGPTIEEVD
UniProt P11142: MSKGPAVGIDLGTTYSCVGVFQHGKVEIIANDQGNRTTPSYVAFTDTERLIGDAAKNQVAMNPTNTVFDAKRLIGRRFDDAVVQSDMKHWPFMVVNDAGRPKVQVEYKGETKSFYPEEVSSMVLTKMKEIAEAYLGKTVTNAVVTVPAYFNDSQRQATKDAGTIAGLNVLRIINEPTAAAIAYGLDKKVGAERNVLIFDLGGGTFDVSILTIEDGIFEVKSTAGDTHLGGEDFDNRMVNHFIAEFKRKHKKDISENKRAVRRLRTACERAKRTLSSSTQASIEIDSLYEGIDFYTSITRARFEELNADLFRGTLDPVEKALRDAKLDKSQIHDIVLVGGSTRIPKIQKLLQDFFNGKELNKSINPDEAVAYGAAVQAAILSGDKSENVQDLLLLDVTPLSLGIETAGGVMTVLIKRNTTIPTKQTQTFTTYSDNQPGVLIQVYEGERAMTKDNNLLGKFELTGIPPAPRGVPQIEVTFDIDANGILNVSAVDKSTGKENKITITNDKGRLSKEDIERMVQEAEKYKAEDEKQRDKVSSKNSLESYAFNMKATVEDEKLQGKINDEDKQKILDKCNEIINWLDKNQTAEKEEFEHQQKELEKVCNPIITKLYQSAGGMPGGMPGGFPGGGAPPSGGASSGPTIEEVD
UniProt P11223, residues 19-272: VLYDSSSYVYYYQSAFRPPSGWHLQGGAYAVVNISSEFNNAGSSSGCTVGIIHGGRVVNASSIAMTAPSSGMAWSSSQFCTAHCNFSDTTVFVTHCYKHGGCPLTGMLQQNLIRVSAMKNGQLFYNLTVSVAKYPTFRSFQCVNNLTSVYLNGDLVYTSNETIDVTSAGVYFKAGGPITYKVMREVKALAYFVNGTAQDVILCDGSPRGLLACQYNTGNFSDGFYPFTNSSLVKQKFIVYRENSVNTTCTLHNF

[4] = target: GST-HSPA8 (not stated (chicken, human or pig HSPA8 cloned)) (UniProt O73885); assay: pull-down; GST or GST-HSPA8 bound to glutathione-sepharose beads, incubated 12 h at 4°C with lysates of 293T cells transfected with EGFP-C3-M41-RBD; Western blot with antibodies against GST and GFP; only the target purified
flag-human-HSPA8 (human) = flag-human-HSPA8 (human) (UniProt P11142); assay: co-IP; 293T cells cotransfected; flag-tagged HSPA8 immunoprecipitated with flag antibody, Sepharose A/G beads; Western blot with anti-flag and anti-GFP

## heat shock protein member 8 (HSPA8), chicken, endogenous (from UniProt O73885 1-646)
[1]
  binding: binds

## EGFP-C3-BD-253 (from UniProt P11223 19-272) (domain or fragment)
[2]
  binding: binds

## flag-n-HSPA8 (chicken HSPA8) (from UniProt O73885 1-646)
[3]
  binding: binds

B1: EGFP-C3-M41-RBD (domain or fragment, UniProt P12651 19-272)
chain: ALYDSSSYVYYYQSAFRPPNGWHLHGGAYAVVNISSESNNAGSSPGCIVGTIHGGRVVNASSIAMTAPSSGMAWSSSQFCTAHCNFSDTTVFVTHCYKYDGCPITGMLQKNFLRVSAMKNGQLFYNLTVSVAKYPTFKSFQCVNNLTSVYLNGDLVYTSNETTDVTSAGVYFKAGGPITYKVMRKVKALAYFVNGTAQDVILCDGSPRGLLACQYNTGNFSDGFYPFINSSLVKQKFIVYRENSVNTTFTLHNF
[4]
  binding: binds
flag-human-HSPA8 (human)
  binding: binds
[2]
  binding: binds

— article PMC7381282
